PubChem BioAssay AID686937 | Drosophila RNAi Screening Center, 2013
The deposit covers about 23,000 reagents; below is an unselected part of those that have a named target and a result. 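Reduced-secretion tags in replicate 1 do not always agree with the z-scores; no criterion for assigning the tags was given.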 Names joined by + are all predicted targets of the reagent. Not all columns of the deposit are shown. The record does not give: the amount of reagent.

Aim: 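Genes whose loss weakens secretory pathway function in fly cells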 (primary screen)
Cell system: Drosophila S2 cells expressing secreted horseradish peroxidase
Reagents: long dsRNA against Drosophila genes
Time to read-out: about 5.5 days (5 days dsRNA, then 12 h reporter induction)
Treatment: reporter expression induced after 5 days of dsRNA, read 12 h later; inducer not stated
Detection: 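Chemiluminescent measurement of peroxidase in the medium 12 h after reporter induction, following 5 days of dsRNA, given as a z-score per plate; higher means more secretion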
Direction: z-score: higher = more reporter secreted into medium

Ns3 (GeneID 31097) [DRSC18607]
- z-score, replicate 1: -1.01
- phenotype, replicate 1: reduced secretion

COX6AL2 + Ir75d [DRSC10081]
- z-score, replicate 1: 0.15

CG43089 (GeneID 12798588) [DRSC08060]
- z-score, replicate 1: 0.24

Shawl (GeneID 5740840) [DRSC02209]
- z-score, replicate 1: 0.41

Shawl (GeneID 5740840) [DRSC02748]
- z-score, replicate 1: 0.5

CG30095 (GeneID 246453) [DRSC07175]
- z-score, replicate 1: 0.29

CG10948 (GeneID 39459) [DRSC09806]
- z-score, replicate 1: 0.15

MFS9 (GeneID 42426) [DRSC15560]
- z-score, replicate 1: 0.27

His-Psi:CR31754 (GeneID 3772639) [DRSC22051]
- z-score, replicate 1: 0.66
- phenotype, replicate 1: reduced secretion

CG31706 (GeneID 261621) [DRSC22704]
- z-score, replicate 1: -0.73

BTBD9 (GeneID 32000) [DRSC18148]
- z-score, replicate 1: 0.37

BTBD9 (GeneID 32000) [DRSC22371]
- z-score, replicate 1: 1.31

CG5892 (GeneID 42522) [DRSC15910]
- z-score, replicate 1: 0.31

CG2278 (GeneID 31751) [DRSC18226]
- z-score, replicate 1: 0.26

Zcchc7 (GeneID 39883) [DRSC11099]
- z-score, replicate 1: 0.17

Hmu (GeneID 43294) [DRSC16705]
- z-score, replicate 1: 0.23

Ordered by “z-score, replicate 1” (highest first): 2 of the entries above.
CG43089 (GeneID 12798588) [DRSC08060]
- z-score, replicate 1: 0.24

COX6AL2 + Ir75d [DRSC10081]
- z-score, replicate 1: 0.15
